Test results as given in publication PMC9455175.
No constants are given. Whether binding was seen depends on the method and setting. Binding seen in cells or lysates may run through a third protein. Some results given as binding are weak or reduced against the parent protein; the word gives no strength. For some assays here: Tags and fused reporters may be left off the sequences shown.

Sequences of proteins named here, by UniProt entry; tags and fusion partners are left off.
UniProt Q6PDQ2: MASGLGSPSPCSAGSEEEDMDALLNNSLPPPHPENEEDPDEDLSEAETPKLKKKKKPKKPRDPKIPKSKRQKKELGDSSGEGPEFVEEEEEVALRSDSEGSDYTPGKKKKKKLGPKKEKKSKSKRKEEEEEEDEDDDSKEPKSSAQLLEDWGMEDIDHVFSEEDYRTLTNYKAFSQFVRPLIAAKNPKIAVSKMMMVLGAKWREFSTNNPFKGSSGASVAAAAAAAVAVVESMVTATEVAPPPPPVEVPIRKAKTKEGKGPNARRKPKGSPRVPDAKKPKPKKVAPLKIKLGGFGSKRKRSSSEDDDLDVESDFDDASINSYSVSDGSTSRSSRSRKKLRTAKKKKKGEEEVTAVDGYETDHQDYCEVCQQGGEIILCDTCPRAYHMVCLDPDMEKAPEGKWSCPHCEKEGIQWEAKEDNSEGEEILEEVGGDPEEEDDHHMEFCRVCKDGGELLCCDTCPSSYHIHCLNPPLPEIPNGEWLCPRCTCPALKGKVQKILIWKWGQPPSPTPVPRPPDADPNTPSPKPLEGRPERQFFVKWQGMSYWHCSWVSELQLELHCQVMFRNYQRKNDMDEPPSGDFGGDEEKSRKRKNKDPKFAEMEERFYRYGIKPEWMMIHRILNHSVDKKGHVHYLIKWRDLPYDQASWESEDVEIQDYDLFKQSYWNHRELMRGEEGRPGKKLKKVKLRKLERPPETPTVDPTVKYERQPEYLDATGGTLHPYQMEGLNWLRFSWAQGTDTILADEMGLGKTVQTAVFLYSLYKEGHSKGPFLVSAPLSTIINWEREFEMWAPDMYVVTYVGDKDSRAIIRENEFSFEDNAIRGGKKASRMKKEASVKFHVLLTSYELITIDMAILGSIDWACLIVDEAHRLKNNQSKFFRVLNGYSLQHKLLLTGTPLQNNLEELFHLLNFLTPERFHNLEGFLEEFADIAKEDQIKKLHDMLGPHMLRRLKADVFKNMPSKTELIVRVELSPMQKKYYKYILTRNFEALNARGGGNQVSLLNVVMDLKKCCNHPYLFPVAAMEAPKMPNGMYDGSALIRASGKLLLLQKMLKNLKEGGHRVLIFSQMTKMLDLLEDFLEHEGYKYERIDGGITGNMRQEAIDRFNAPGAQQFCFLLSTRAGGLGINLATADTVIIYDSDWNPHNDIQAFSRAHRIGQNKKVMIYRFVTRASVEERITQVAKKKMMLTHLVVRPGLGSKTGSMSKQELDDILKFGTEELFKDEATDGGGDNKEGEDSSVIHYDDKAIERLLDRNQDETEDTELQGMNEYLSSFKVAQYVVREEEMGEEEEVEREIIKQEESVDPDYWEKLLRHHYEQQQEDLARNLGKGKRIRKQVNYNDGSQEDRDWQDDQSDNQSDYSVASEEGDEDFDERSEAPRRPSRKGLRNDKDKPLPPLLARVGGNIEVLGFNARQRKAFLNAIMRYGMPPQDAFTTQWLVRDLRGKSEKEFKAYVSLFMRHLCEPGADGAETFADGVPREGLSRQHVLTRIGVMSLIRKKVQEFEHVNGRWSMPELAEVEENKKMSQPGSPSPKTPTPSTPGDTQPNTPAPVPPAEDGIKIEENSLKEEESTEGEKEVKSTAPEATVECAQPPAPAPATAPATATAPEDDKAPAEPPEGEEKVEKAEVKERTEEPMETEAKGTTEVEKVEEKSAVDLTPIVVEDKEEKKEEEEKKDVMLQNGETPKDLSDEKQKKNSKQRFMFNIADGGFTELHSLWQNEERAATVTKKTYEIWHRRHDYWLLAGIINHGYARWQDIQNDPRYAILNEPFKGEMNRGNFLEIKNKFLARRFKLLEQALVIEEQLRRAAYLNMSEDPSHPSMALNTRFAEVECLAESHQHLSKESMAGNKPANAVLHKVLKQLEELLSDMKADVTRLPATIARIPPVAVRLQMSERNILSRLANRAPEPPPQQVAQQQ

Assays:
[1] = biological target: Chd4 (chromatin helicase DNA binding protein 4) (mouse (endogenous in heart)) (UniProt Q6PDQ2); assay: co-IP; anti-Chd4 immunoprecipitation from WT and Chd4corin cardiac nuclear extracts, Western blot for Znf219
[2] = biological target: Flag-Chd4 (UniProt Q6PDQ2); assay: co-IP; cells co-transfected with Flag-Chd4 and Myc-Znf219 plasmids (Figure S1); which protein was precipitated is not told in the text shown

binding [1] | binding [2] | Binder
binds |  | Znf219 (protein, UniProt Q6IQX8 1-726) MEGSRPRILVGHLEPSPPAFDGELDLQRYSNGPGVSGTPGPGSPGMGAVGWSETRAGERRFPCPVCGKRFRFNSILALHLRAHPGAQAFQCPHCGHRAAQRALLRSHLRTHQPERPRSPAARLLLELEERALLREARLGRARSSGGMQSSPAAEGLARPQVPSSSAFRCPFCKGKFRTSAERERHLHILHRPWKCSLCSFGSSQEEELLHHSLTAHGASERPLAATSTPEPPPPPQQEPRSALEPEPEPEPRPEPDREANPAPTPAPPEEPPAPPEFRCQVCGQSFTQSWFLKGHMRKHKASFDHACPVCGRCFKEPWFLKNHMKVHTSKLGPLRAPGPGSAPARAPQPPDLSLLAYEPLGPALLLAPAPAPAERREPPSLLGYLSVRAGEVRPNGEGADPGGGRSYGGFRPLPSALPNRARRHRTEEPEEEEEVVEAEEESWARGRSLGSLTSLHPNPGEGSGQPAPAAGTQARSTATQEENGLLVGGTRSEAGRGATGKDCPFCGKSFRSAHHLKVHLRVHTGERPYKCPHCDYAGTQSGSLKYHLQRHHREQRSSAGPGPPPEPPPPSQRGSLQPQSGAKPTQASATWVEGTASTRPPSSSTGPGSRRKPASPGRTLRNGRGGEAEPLDLSLRAGPGGEAGAGGALHRCLFCPFATGAPELMALHLQVHHSRRARGRRQPRADTSPTYVRAPSGETPPSPPLEEEGSPGLSRSGEAGLGGQER
 | binds | Myc-Znf219 (protein, UniProt Q6IQX8 1-726) MEGSRPRILVGHLEPSPPAFDGELDLQRYSNGPGVSGTPGPGSPGMGAVGWSETRAGERRFPCPVCGKRFRFNSILALHLRAHPGAQAFQCPHCGHRAAQRALLRSHLRTHQPERPRSPAARLLLELEERALLREARLGRARSSGGMQSSPAAEGLARPQVPSSSAFRCPFCKGKFRTSAERERHLHILHRPWKCSLCSFGSSQEEELLHHSLTAHGASERPLAATSTPEPPPPPQQEPRSALEPEPEPEPRPEPDREANPAPTPAPPEEPPAPPEFRCQVCGQSFTQSWFLKGHMRKHKASFDHACPVCGRCFKEPWFLKNHMKVHTSKLGPLRAPGPGSAPARAPQPPDLSLLAYEPLGPALLLAPAPAPAERREPPSLLGYLSVRAGEVRPNGEGADPGGGRSYGGFRPLPSALPNRARRHRTEEPEEEEEVVEAEEESWARGRSLGSLTSLHPNPGEGSGQPAPAAGTQARSTATQEENGLLVGGTRSEAGRGATGKDCPFCGKSFRSAHHLKVHLRVHTGERPYKCPHCDYAGTQSGSLKYHLQRHHREQRSSAGPGPPPEPPPPSQRGSLQPQSGAKPTQASATWVEGTASTRPPSSSTGPGSRRKPASPGRTLRNGRGGEAEPLDLSLRAGPGGEAGAGGALHRCLFCPFATGAPELMALHLQVHHSRRARGRRQPRADTSPTYVRAPSGETPPSPPLEEEGSPGLSRSGEAGLGGQER
